Common to all, as to test: cross-linking; XL-MS of intact (native) mouse heart mitochondria: 0.5 mM DSSO in HEENK buffer (10 mM HEPES, 1 mM EDTA, 1 mM EGTA, 10 mM NaCl, 150 mM KCl, pH 7.1), 20 °C, 1 h; Lys-Lys cross-links identified with XlinkX v2.0 at 2% FDR; two biological replicates
The target in assay [1] is T1, mitochondrial Acetyl-CoA acetyltransferase (Acat1) (mouse (endogenous in heart mitochondria)) (UniProt Q8QZT1).
T1 sequence: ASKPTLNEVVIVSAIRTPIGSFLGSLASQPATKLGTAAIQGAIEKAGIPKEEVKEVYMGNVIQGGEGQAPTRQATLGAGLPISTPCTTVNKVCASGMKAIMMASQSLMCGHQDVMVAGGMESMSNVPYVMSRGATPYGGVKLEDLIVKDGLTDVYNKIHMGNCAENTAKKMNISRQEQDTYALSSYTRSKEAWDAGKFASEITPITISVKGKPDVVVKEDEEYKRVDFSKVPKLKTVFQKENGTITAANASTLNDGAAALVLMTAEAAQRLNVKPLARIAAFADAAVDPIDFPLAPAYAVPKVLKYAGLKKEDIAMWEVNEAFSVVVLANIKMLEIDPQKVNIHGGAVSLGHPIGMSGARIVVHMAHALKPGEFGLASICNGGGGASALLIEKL

Protein sequences, listed by entry. Tags and fused reporters are not part of them. Lines headed by an entry give the natural chain unless they say otherwise; changes in a name come on top.
UniProt Q8BMS1: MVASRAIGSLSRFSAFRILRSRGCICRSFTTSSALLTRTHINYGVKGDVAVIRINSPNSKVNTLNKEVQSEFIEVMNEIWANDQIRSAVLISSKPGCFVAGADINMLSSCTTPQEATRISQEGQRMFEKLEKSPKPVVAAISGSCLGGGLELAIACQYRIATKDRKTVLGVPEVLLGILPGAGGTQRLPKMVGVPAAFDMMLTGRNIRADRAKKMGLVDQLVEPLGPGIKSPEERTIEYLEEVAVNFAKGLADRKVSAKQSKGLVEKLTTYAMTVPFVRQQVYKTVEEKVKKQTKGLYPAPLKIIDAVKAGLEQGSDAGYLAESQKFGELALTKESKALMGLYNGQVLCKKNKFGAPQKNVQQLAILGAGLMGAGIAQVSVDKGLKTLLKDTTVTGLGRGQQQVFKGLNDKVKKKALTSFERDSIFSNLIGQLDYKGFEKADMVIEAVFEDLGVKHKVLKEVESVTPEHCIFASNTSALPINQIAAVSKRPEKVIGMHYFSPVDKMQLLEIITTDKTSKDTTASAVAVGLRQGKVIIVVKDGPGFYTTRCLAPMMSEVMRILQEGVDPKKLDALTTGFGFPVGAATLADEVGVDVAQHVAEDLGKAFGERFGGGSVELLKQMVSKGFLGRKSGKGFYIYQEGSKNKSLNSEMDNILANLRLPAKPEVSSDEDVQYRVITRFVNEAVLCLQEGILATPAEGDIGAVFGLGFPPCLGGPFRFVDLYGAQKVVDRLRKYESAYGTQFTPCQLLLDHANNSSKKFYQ
UniProt Q99JY0: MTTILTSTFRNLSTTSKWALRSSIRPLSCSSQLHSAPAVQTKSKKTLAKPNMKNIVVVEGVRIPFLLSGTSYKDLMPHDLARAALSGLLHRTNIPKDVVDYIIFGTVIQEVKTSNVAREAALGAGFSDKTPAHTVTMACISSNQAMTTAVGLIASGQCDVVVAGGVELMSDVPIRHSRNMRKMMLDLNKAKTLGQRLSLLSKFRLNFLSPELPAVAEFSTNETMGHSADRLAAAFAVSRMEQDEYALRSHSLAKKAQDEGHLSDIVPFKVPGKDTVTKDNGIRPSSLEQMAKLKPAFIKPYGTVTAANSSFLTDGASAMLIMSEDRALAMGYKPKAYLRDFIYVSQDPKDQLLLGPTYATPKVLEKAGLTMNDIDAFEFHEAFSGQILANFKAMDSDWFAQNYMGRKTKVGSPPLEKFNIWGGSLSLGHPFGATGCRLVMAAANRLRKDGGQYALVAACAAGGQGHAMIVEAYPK

For assay [2], the target named is T2, electron transferring flavoprotein complex (mouse (endogenous in heart mitochondria)) (UniProt Q99LC5+Q9DCW4).
T2 sequence 1: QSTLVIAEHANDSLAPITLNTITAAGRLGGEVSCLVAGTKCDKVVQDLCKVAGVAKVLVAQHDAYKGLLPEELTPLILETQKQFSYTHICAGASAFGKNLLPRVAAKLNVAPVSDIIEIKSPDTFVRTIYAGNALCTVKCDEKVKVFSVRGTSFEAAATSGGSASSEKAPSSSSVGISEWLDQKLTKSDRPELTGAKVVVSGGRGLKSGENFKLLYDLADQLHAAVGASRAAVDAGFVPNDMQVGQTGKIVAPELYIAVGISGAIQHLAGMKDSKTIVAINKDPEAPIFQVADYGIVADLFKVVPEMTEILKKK
T2 sequence 2: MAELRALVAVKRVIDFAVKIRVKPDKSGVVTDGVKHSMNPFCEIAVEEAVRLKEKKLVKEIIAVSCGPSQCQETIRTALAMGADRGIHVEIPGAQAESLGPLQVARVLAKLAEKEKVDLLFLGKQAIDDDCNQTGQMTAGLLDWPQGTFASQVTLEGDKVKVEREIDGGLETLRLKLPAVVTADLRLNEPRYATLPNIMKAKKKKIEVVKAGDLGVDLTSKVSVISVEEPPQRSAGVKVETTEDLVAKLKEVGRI

The target in assay [3] is trifunctional enzyme complex (mouse (endogenous in heart mitochondria)) (UniProt Q8BMS1+Q99JY0).
For assay [4], the target named is T3, mitochondrial 3-ketoacyl-CoA thiolase (mouse (endogenous in heart mitochondria)) (UniProt Q8BWT1).
T3 sequence: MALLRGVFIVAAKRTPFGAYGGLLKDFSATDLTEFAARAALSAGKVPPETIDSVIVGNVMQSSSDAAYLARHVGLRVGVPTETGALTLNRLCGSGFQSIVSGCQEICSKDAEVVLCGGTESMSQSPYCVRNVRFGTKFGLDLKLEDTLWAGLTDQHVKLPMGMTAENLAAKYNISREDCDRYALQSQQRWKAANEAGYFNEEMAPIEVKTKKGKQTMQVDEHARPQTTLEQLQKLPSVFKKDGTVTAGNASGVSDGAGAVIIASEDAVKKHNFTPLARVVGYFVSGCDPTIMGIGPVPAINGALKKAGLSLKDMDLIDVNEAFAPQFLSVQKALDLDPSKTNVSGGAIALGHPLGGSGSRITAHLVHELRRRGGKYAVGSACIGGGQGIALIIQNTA

For assay [5], the target named is T4, Coq6 (mouse (endogenous in heart mitochondria)) (UniProt Q8R1S0).
T4 sequence: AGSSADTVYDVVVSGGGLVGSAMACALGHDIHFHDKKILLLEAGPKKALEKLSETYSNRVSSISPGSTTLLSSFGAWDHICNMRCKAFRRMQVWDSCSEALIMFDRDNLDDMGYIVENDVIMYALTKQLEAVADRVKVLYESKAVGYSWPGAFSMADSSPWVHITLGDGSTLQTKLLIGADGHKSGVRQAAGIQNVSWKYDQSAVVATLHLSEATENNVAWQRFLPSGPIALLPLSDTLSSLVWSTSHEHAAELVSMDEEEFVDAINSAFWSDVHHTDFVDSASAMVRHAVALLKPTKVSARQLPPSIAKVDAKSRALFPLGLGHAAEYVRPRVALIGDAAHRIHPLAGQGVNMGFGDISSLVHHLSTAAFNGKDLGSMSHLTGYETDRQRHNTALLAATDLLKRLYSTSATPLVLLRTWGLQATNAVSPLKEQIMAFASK

Results are given in words; binding and its absence hold for the method and conditions named. In cells and extracts the contact can be indirect. Some results given as binding are weak or reduced against the parent protein; the word gives no strength.

B1: Stau1 (protein, UniProt Q9Z108 1-487)
chain: MYKPVDPHSRMQSTYSYGMRGGAYPPRYFYPFPVPPLLYQVELSVGGQQFNGKGKMRPPVKHDAPARALRTLQSEPLPERLEVNGREAEEENLNKSEISQVFEIALKRNLPVNFEVARESGPPHMKNFVTRVSVGEFVGEGEGKSKKISKKNAARAVLEQLRRLPPLPAVERVKPRIKKKSQPTCKTAPDYGQGMNPISRLAQIQQAKKEKEPEYMLLTERGLPRRREFVMQVKVGHHTAEGVGTNKKVAKRNAAENMLEILGFKVPQAQPAKPALKSEEKTPVKKPGDGRKVTFFEPSPGDENGTSNKDEEFRMPYLSHQQLPAGILPMVPEVAQAVGVSQGHHTKDFTRAAPNPAKATVTAMIARELLYGGTSPTAETILKSNISSGHVPHGPRTRPSEQLYYLSRAQGFQVEYKDFPKNNKNECVSLINCSSQPPLVSHGIGKDVESCHDMAALNILKLLSELDQQSTEMPRTGNGPVSACGRC
Turning to B1, the binding entry in assay [1] is “binds”.

B2: Lyrm5 (protein, UniProt Q91V16 1-86)
chain: MANSLRGEVLTLYKNLLYLGRDYPKGADYFKRRLKNVFLKNKDVEDPEKIKELIARGEFVMKELEALYFLRKYRAMKQRYYSDTKV
As to B2, the binding entry in assay [2] is reported as “binds”.

B3: Junb (protein, UniProt P09450 1-344)
chain: MCTKMEQPFYHDDSYAAAGYGRSPGSLSLHDYKLLKPTLALNLADPYRGLKGPGARGPGPEGSGAGSYFSGQGSDTGASLKLASTELERLIVPNSNGVITTTPTPPGQYFYPRGGGSGGGTGGGVTEEQEGFADGFVKALDDLHKMNHVTPPNVSLGASGGPQAGPGGVYAGPEPPPVYTNLSSYSPASAPSGGSGTAVGTGSSYPTATISYLPHAPPFAGGHPAQLGLSRGASAFKEEPQTVPEARSRDATPPVSPINMEDQERIKVERKRLRNRLAATKCRKRKLERIARLEDKVKTLKAENAGLSSAAGLLREQVAQLKQKVMTHVSNGCQLLLGVKGHAF
Take B3: the binding result in assay [3] is listed as “binds”.

B4: Mum1 (protein, UniProt Q6DID5 1-682)
chain: MTDAKYVLCRWGKRLWPAKVLARTETSAKNKKKKEFFLDVQILSLKEKIQVKSSAVEALQKSHIENIAAFLASQNEVPATPLEELTYRRSLRVALDVLNERTSLSPESHPIEDGITLSQKEKTDADVASQVSSAPSPSLLGEDGQAVVAQCASKRRSEYSSKSLLPSSALEDHLRCQVGPKTGLSESGAGDKSQDDSGLQLDHGQESTTKKRQRNLGEKPTRRRRSESGLSKGESVLKSQGQASSCVALASPRPPSQTRDEEPCAGVKGCDWVKSSGNIRPLSASERSRGCPTKRPRLDGGQNPPTRQLGTRTVGAAPCPRSCSGEVTMLCSAGAGDKPEEDPVSSEESTGFKSTHSLLEEEEEEEEEPPRILLYHEPRSFEVGMLVWLKYQKYPFWPAVVKSVRRRDKKASVLFIEGNMNPKGRGITVSLRRLKHFDCKEKHALLDRAKEDFAQAIGWCVSLITDYRVRLGCGSFAGSFLEYYAADISYPVRKSIQQDVLGTRFPQLGKGDPEEPVGDSQLGQWRPCRKVLPDRSRAARDRANQKLVEYIVKAKGAESHLRAILHSRKPSRWLKTFLSSSQCVTCMETYLEDEAQLDEVVEYLQGVCRDMDGQVPERGSGDRIRFILDVLLPEAIICAISAVEAVDYKTAEQKYIRGPTLSYREKEIFDNELLEERNRRRR
B4: the binding result in assay [4] is “binds”.

B5: Coq3 (protein, UniProt Q8BMS4 87-370)
chain: STSQTTVDSREVKNFQALAHTWWDEYGKFAPLHSMNDLRVPFIRDNLLKTSASHHPGKPLSGMKILDVGCGGGLLTEPLGRLGASVVGIDPVAENIKIAQHHKSFDPVLDKRIQYKVCSLEEAVDESAECFDAVVASEVVEHVSHLEMFIQCCYQVLKPGGSLFITTVNKTQLSYALGIVFAEQIAGIVPKGTHTWEKFVSPEKLESILEPNGLSVETVAGLVYNPFSGYWHWSENTSLNYAAHAVRSRAQEHQEPAESALKGETGALHANTSGSPSVREEQRT
Regarding B5, the binding entry in assay [5] is on record as “binds”.

(Values after article PMC5795388.)
